PubChem BioAssay AID1224830 | NIAID, 2016
Here is one part, drawn at random, of about 18,000 deposited reagents. About 2,900 of all reagents (16%) were called active. 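Calls are made per well; low scores hint the gene aids the LPS response, high scores that it dampens it.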 Repeated entries: four replicate wells of each siRNA pool. No sequences are given here.

- Aim: 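Regulators of TLR4 signalling towards TNF-alpha in macrophage-like cells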 (primary screen)
- Cell system: human THP-1 monocytic leukaemia cells, TNF dual-luciferase reporter clone, PMA-differentiated to macrophage-like cells
- Reagents: siRNA pool against human genes, 50 nM
- Time to read-out: LPS for 4 h, given about 3 days after siRNA transfection
- Conditions: bacterial LPS (TLR4 ligand), 10 ng/ml
- Detection: 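Ratio of firefly to renilla light, scaled to the plate median and expressed as a robust z-score per replicate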
- Reading the numbers: TNF reporter robust z-score: higher = stronger TNF reporter response to LPS
- Rule for the call: 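a well is active when its z-score exceeds 2.8 or falls below -1.5; control wells carry no call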

Against TACSTD2 (tumor associated calcium signal transducer 2) the deposit lists TNF reporter robust z-score -1.01; inactive.
Knock-down of TACSTD2 (tumor associated calcium signal transducer 2) came out at: TNF reporter robust z-score -0.07; inactive.
For TACSTD2 (tumor associated calcium signal transducer 2), the entry reads TNF reporter robust z-score -1.29; inactive.
Knock-down of TACSTD2 (tumor associated calcium signal transducer 2) resulted in: TNF reporter robust z-score -1.52; active.
RUNDC1 (RUN domain containing 1) showed TNF reporter robust z-score -0.11; inactive.
Against RUNDC1 (RUN domain containing 1), the values are TNF reporter robust z-score -1.01; inactive.
RUNDC1 (RUN domain containing 1) gave TNF reporter robust z-score 0.21; inactive.
RUNDC1 (RUN domain containing 1) gave TNF reporter robust z-score 0.64; inactive.
IFT56 (intraflagellar transport 56) scored TNF reporter robust z-score 0.31; inactive.
Knock-down of IFT56 (intraflagellar transport 56) came out at: TNF reporter robust z-score -0.27; inactive.
IFT56 (intraflagellar transport 56) scored TNF reporter robust z-score 0.78; inactive.
IFT56 (intraflagellar transport 56) showed TNF reporter robust z-score -0.8; inactive.
Silencing of L3MBTL1 (L3MBTL histone methyl-lysine binding protein 1) came out at: TNF reporter robust z-score -0.59; inactive.
For L3MBTL1 (L3MBTL histone methyl-lysine binding protein 1), the values are TNF reporter robust z-score -0.09; inactive.
With knock-down of L3MBTL1 (L3MBTL histone methyl-lysine binding protein 1) the results were TNF reporter robust z-score 0.33; inactive.
After knock-down of L3MBTL1 (L3MBTL histone methyl-lysine binding protein 1), the record shows TNF reporter robust z-score 1.42; inactive.
Silencing of CKAP2 (cytoskeleton associated protein 2) resulted in: TNF reporter robust z-score 0.21; inactive.
Silencing of CKAP2 (cytoskeleton associated protein 2) resulted in: TNF reporter robust z-score 1.6; inactive.
Silencing of CKAP2 (cytoskeleton associated protein 2) gave: TNF reporter robust z-score 0.55; inactive.
Depletion of CKAP2 (cytoskeleton associated protein 2) came out at: TNF reporter robust z-score -0.3; inactive.

Part of the list above in another layout.
target gene	TNF reporter robust z-score	activity call
IFT56 (intraflagellar transport 56)	-0.8	inactive
L3MBTL1 (L3MBTL histone methyl-lysine binding protein 1)	-0.59	inactive
